In publication PMC5400511 one finds binding data, which are given here for eight molecules.

Chains of the proteins cited; added tags and fusions are not shown.
UniProt Q04656: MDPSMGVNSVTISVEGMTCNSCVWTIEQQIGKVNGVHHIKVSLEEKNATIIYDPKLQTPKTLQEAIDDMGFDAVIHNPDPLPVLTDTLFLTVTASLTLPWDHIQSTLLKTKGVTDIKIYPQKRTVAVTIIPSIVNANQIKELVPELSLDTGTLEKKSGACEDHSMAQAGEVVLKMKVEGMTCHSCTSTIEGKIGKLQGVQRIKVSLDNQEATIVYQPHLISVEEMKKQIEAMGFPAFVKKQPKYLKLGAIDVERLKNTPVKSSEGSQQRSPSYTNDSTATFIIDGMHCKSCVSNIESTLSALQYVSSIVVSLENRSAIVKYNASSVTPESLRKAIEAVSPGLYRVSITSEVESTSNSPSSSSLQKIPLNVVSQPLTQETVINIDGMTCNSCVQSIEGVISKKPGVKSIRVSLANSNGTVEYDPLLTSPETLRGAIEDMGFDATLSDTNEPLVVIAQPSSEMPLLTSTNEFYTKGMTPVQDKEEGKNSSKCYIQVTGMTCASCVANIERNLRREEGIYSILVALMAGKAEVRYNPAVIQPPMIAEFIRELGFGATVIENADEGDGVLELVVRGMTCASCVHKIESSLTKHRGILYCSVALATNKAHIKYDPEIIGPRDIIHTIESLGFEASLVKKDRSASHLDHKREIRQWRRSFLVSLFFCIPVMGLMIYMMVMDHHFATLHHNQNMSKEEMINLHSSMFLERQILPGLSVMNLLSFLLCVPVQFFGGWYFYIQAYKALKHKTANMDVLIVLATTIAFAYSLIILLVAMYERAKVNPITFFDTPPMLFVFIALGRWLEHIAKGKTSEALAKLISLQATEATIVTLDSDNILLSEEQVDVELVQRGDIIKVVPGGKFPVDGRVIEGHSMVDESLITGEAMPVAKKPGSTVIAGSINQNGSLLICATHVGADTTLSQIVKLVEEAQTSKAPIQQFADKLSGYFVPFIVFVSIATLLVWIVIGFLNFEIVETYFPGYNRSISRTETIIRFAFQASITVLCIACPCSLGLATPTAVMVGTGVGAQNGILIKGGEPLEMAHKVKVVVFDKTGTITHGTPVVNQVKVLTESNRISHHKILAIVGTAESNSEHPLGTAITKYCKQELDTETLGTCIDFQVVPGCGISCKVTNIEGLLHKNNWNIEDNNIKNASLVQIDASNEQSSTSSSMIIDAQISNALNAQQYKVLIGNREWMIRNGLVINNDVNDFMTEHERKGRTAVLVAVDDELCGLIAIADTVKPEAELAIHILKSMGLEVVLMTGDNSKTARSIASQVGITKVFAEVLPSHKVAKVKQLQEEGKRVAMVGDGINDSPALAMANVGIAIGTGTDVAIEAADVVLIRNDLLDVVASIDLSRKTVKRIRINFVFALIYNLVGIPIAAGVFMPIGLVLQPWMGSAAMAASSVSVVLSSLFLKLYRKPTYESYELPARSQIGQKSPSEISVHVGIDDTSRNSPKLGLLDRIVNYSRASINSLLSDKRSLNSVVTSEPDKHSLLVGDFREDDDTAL
UniProt P46459: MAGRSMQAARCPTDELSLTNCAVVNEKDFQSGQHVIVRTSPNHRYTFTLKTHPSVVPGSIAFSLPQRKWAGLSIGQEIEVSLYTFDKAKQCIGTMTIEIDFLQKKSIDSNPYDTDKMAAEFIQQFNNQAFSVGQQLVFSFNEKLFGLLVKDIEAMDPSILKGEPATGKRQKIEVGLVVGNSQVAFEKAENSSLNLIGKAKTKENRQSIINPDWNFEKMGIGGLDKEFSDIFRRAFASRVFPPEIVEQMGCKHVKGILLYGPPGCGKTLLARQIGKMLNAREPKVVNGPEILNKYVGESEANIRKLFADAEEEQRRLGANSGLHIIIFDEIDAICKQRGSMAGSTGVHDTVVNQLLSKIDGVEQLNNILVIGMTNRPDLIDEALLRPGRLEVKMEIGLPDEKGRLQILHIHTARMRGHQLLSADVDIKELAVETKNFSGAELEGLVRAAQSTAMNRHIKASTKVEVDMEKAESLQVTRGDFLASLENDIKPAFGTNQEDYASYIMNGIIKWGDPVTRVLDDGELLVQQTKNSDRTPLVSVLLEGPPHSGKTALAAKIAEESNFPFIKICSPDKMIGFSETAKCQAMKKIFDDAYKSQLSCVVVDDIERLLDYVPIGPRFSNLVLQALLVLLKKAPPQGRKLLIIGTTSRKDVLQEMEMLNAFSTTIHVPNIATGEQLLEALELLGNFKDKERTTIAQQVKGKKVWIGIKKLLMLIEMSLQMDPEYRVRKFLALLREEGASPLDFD
UniProt P19838: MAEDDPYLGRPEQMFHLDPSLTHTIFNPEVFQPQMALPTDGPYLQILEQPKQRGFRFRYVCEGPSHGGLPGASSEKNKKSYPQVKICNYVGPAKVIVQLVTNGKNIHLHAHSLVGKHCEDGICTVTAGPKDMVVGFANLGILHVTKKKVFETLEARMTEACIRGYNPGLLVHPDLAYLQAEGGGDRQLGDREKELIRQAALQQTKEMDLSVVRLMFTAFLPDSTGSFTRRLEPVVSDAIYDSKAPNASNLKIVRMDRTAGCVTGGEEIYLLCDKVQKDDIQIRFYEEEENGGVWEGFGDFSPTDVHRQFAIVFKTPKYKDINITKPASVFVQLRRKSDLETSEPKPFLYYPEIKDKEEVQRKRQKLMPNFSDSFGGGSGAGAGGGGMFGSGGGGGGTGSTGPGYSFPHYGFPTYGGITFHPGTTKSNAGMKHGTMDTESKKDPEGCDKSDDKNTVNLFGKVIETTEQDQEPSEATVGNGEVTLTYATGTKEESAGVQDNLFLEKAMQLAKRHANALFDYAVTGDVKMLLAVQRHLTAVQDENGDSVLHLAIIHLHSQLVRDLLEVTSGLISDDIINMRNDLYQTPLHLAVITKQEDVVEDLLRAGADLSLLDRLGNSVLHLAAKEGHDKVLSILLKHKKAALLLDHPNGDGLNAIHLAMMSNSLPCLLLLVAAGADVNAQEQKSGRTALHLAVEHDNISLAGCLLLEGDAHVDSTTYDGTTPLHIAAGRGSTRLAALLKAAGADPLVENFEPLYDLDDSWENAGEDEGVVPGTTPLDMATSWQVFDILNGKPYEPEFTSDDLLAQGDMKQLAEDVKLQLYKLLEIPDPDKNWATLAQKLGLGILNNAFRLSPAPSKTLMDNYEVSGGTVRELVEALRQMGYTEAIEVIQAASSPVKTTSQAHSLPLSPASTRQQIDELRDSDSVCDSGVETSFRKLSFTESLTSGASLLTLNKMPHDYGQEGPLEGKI
UniProt Q96N67: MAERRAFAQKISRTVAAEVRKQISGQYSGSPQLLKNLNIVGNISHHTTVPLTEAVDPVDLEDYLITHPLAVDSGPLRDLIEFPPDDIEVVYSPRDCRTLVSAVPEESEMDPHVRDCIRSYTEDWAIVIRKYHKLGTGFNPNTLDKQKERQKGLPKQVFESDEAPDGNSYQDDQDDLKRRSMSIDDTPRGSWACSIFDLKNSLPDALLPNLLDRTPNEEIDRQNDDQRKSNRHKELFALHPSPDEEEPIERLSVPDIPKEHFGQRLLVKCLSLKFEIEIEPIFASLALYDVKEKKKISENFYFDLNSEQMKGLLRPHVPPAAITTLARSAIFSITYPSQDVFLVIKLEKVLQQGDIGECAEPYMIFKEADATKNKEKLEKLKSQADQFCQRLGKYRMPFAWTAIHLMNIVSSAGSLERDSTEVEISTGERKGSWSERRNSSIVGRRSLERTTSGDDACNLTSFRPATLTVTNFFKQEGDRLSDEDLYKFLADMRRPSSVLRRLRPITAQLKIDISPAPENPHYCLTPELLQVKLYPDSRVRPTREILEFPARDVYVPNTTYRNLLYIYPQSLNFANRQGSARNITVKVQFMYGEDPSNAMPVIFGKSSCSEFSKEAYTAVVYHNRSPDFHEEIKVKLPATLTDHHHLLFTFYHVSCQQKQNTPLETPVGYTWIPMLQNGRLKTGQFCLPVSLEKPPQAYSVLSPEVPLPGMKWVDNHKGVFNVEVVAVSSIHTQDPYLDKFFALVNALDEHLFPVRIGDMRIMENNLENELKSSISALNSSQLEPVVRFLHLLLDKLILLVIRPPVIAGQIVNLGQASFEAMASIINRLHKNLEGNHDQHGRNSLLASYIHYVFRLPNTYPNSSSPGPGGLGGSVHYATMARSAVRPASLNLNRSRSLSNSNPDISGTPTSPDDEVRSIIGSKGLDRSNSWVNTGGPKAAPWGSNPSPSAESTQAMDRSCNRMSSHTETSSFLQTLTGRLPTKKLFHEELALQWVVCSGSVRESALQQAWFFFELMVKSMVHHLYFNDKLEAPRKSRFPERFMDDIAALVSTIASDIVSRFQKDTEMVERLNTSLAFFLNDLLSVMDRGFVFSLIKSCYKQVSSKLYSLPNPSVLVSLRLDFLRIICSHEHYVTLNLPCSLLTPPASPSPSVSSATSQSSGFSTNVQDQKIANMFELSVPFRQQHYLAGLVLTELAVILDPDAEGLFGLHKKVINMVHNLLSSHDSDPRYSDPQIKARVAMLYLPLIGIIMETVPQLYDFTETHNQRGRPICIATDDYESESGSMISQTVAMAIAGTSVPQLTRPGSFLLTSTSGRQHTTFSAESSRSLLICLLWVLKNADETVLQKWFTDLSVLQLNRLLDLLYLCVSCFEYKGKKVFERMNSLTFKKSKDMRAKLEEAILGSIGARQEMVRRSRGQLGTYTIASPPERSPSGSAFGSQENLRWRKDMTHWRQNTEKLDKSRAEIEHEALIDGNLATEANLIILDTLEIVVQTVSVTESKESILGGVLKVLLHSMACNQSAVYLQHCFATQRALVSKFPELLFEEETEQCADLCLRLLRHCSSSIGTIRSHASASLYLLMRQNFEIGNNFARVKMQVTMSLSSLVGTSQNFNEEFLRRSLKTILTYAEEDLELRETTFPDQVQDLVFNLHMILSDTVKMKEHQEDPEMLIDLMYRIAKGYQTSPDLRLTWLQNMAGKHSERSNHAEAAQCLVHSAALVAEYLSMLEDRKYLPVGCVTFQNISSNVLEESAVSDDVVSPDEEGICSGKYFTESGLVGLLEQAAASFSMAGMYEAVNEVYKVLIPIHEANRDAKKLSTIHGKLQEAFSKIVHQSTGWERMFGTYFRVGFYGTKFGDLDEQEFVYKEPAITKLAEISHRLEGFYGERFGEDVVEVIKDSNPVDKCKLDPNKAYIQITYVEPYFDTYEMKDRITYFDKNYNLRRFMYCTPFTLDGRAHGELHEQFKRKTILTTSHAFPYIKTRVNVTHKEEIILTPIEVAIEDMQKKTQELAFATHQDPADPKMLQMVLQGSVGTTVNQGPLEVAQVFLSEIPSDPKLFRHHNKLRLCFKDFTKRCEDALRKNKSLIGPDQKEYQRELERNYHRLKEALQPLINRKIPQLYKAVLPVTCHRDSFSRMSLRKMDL

Like-named read-outs stand apart in the source and are kept apart here. Results are given in words; binding and its absence hold for the method and conditions named. In cells and extracts the contact can be indirect. A yes stands for co-enrichment or nearness to the bait. Other partners may have been found.

In experiment [1] the target is ATP7A (human (endogenous in SH-SY5Y)) (UniProt Q04656). As to the kind of experiment: affinity purification with mass spectrometry; SH-SY5Y cells pre-treated with 400 uM BCS or 200 uM CuCl2 for 2 hr, cross-linked with DSP; extracts immunoprecipitated with monoclonal ATP7A antibody on magnetic beads without or with 22 uM antigenic ATP7A peptide; eluted with the peptide; label free quantitative mass spectrometry, ratio >2; hits from ATP7A-null fibroblasts removed.

For experiment [2] the target is unchanged. Described as above. The source holds these as a separate data set.

As for NSF (from UniProt P46459 1-744), the binding entry in experiment [1] is “binds”.

NFKB1 (from UniProt P19838 1-968): the binding result in experiment [1] was “binds”.

With DOCK7 (from UniProt Q96N67 1-2140), in experiment [1], the binding entry is given as “binds”.

B1: COG2 (protein, UniProt Q14746 1-738)
chain: MEKSRMNLPKGPDTLCFDKDEFMKEDFDVDHFVSDCRKRVQLEELRDDLELYYKLLKTAMVELINKDYADFVNLSTNLVGMDKALNQLSVPLGQLREEVLSLRSSVSEGIRAVDERMSKQEDIRKKKMCVLRLIQVIRSVEKIEKILNSQSSKETSALEASSPLLTGQILERIATEFNQLQFHAVQSKGMPLLDKVRPRIAGITAMLQQSLEGLLLEGLQTSDVDIIRHCLRTYATIDKTRDAEALVGQVLVKPYIDEVIIEQFVESHPNGLQVMYNKLLEFVPHHCRLLREVTGGAISSEKGNTVPGYDFLVNSVWPQIVQGLEEKLPSLFNPGNPDAFHEKYTISMDFVRRLERQCGSQASVKRLRAHPAYHSFNKKWNLPVYFQIRFREIAGSLEAALTDVLEDAPAESPYCLLASHRTWSSLRRCWSDEMFLPLLVHRLWRLTLQILARYSVFVNELSLRPISNESPKEIKKPLVTGSKEPSITQGNTEDQGSGPSETKPVVSISRTQLVYVVADLDKLQEQLPELLEIIKPKLEMIGFKNFSSISAALEDSQSSFSACVPSLSSKIIQDLSDSCFGFLKSALEVPRLYRRTNKEVPTTASSYVDSALKPLFQLQSGHKDKLKQAIIQQWLEGTLSESTHKYYETVSDVLNSVKKMEESLKRLKQARKTTPANPVGPSGGMSDDDKIRLQLALDVEYLGEQIQKLGLQASDIKSFSALAELVAAAKDQATAEQP
Regarding B1, in experiment [2], the binding entry is reported as “binds”.

B2: COG7 (protein, UniProt P83436 1-770)
chain: MDFSKFLADDFDVKEWINAAFRAGSKEAASGKADGHAATLVMKLQLFIQEVNHAVEETSHQALQNMPKVLRDVEALKQEASFLKEQMILVKEDIKKFEQDTSQSMQVLVEIDQVKSRMQLAAESLQEADKWSTLSADIEETFKTQDIAVISAKLTGMQNSLMMLVDTPDYSEKCVHLEALKNRLEALASPQIVAAFTSQAVDQSKVFVKVFTEIDRMPQLLAYYYKCHKVQLLAAWQELCQSDLSLDRQLTGLYDALLGAWHTQIQWATQVFQKPHEVVMVLLIQTLGALMPSLPSCLSNGVERAGPEQELTRLLEFYDATAHFAKGLEMALLPHLHEHNLVKVTELVDAVYDPYKPYQLKYGDMEESNLLIQMSAVPLEHGEVIDCVQELSHSVNKLFGLASAAVDRCVRFTNGLGTCGLLSALKSLFAKYVSDFTSTLQSIRKKCKLDHIPPNSLFQEDWTAFQNSIRIIATCGELLRHCGDFEQQLANRILSTAGKYLSDSCSPRSLAGFQESILTDKKNSAKNPWQEYNYLQKDNPAEYASLMEILYTLKEKGSSNHNLLAAPRAALTRLNQQAHQLAFDSVFLRIKQQLLLISKMDSWNTAGIGETLTDELPAFSLTPLEYISNIGQYIMSLPLNLEPFVTQEDSALELALHAGKLPFPPEQGDELPELDNMADNWLGSIARATMQTYCDAILQIPELSPHSAKQLATDIDYLINVMDALGLQPSRTLQHIVTLLKTRPEDYRQVSKGLPRRLATTVATMRSVNY
With B2, in experiment [2], the binding entry was “binds”.

B3: GIGYF2/PARK11 (protein, UniProt Q6Y7W6 1-1299)
chain: MAAETQTLNFGPEWLRALSSGGSITSPPLSPALPKYKLADYRYGREEMLALFLKDNKIPSDLLDKEFLPILQEEPLPPLALVPFTEEEQRNFSMSVNSAAVLRLTGRGGGGTVVGAPRGRSSSRGRGRGRGECGFYQRSFDEVEGVFGRGGGREMHRSQSWEERGDRRFEKPGRKDVGRPNFEEGGPTSVGRKHEFIRSESENWRIFREEQNGEDEDGGWRLAGSRRDGERWRPHSPDGPRSAGWREHMERRRRFEFDFRDRDDERGYRRVRSGSGSIDDDRDSLPEWCLEDAEEEMGTFDSSGAFLSLKKVQKEPIPEEQEMDFRPVDEGEECSDSEGSHNEEAKEPDKTNKKEGEKTDRVGVEASEETPQTSSSSARPGTPSDHQSQEASQFERKDEPKTEQTEKAEEETRMENSLPAKVPSRGDEMVADVQQPLSQIPSDTASPLLILPPPVPNPSPTLRPVETPVVGAPGMGSVSTEPDDEEGLKHLEQQAEKMVAYLQDSALDDERLASKLQEHRAKGVSIPLMHEAMQKWYYKDPQGEIQGPFNNQEMAEWFQAGYFTMSLLVKRACDESFQPLGDIMKMWGRVPFSPGPAPPPHMGELDQERLTRQQELTALYQMQHLQYQQFLIQQQYAQVLAQQQKAALSSQQQQQLALLLQQFQTLKMRISDQNIIPSVTRSVSVPDTGSIWELQPTASQPTVWEGGSVWDLPLDTTTPGPALEQLQQLEKAKAAKLEQERREAEMRAKREEEERKRQEELRRQQEEILRRQQEEERKRREEEELARRKQEEALRRQREQEIALRRQREEEERQQQEEALRRLEERRREEEERRKQEELLRKQEEEAAKWAREEEEAQRRLEENRLRMEEEAARLRHEEEERKRKELEVQRQKELMRQRQQQQEALRRLQQQQQQQQLAQMKLPSSSTWGQQSNTTACQSQATLSLAEIQKLEEERERQLREEQRRQQRELMKALQQQQQQQQQKLSGWGNVSKPSGTTKSLLEIQQEEARQMQKQQQQQQQHQQPNRARNNTHSNLHTSIGNSVWGSINTGPPNQWASDLVSSIWSNADTKNSNMGFWDDAVKEVGPRNSTNKNKNNASLSKSVGVSNRQNKKVEEEEKLLKLFQGVNKAQDGFTQWCEQMLHALNTANNLDVPTFVSFLKEVESPYEVHDYIRAYLGDTSEAKEFAKQFLERRAKQKANQQRQQQQLPQQQQQQPPQQPPQQPQQQDSVWGMNHSTLHSVFQTNQSNNQQSNFEAVQSGKKKKKQKMVRADPSLLGFSVNASSERLNMGEIETLDDY
For the molecule B3, in experiment [2], the binding entry is “binds”.

B4: dopamine beta hydroxylase (protein, UniProt P09172 1-617)
chain: MPALSRWASLPGPSMREAAFMYSTAVAIFLVILVAALQGSAPRESPLPYHIPLDPEGSLELSWNVSYTQEAIHFQLLVRRLKAGVLFGMSDRGELENADLVVLWTDGDTAYFADAWSDQKGQIHLDPQQDYQLLQVQRTPEGLTLLFKRPFGTCDPKDYLIEDGTVHLVYGILEEPFRSLEAINGSGLQMGLQRVQLLKPNIPEPELPSDACTMEVQAPNIQIPSQETTYWCYIKELPKGFSRHHIIKYEPIVTKGNEALVHHMEVFQCAPEMDSVPHFSGPCDSKMKPDRLNYCRHVLAAWALGAKAFYYPEEAGLAFGGPGSSRYLRLEVHYHNPLVIEGRNDSSGIRLYYTAKLRRFNAGIMELGLVYTPVMAIPPRETAFILTGYCTDKCTQLALPPSGIHIFASQLHTHLTGRKVVTVLVRDGREWEIVNQDNHYSPHFQEIRMLKKVVSVHPGDVLITSCTYNTEDRELATVGGFGILEEMCVNYVHYYPQTQLELCKSAVDAGFLQKYFHLINRFNNEDVCTCPQASVSQQFTSVPWNSFNRDVLKALYSFAPISMHCNKSSAVRFQGEWNLQPLPKVISTLEEPTPQCPTSQGRSPAGPTVVSIGGGKG
For B4, the binding entry in experiment [2] was “binds”.

B5: COG4 (protein, UniProt Q9H9E3 1-785)
chain: MADLDSPPKLSGVQQPSEGVGGGRCSEISAELIRSLTELQELEAVYERLCGEEKVVERELDALLEQQNTIESKMVTLHRMGPNLQLIEGDAKQLAGMITFTCNLAENVSSKVRQLDLAKNRLYQAIQRADDILDLKFCMDGVQTALRSEDYEQAAAHTHRYLCLDKSVIELSRQGKEGSMIDANLKLLQEAEQRLKAIVAEKFAIATKEGDLPQVERFFKIFPLLGLHEEGLRKFSEYLCKQVASKAEENLLMVLGTDMSDRRAAVIFADTLTLLFEGIARIVETHQPIVETYYGPGRLYTLIKYLQVECDRQVEKVVDKFIKQRDYHQQFRHVQNNLMRNSTTEKIEPRELDPILTEVTLMNARSELYLRFLKKRISSDFEVGDSMASEEVKQEHQKCLDKLLNNCLLSCTMQELIGLYVTMEEYFMRETVNKAVALDTYEKGQLTSSMVDDVFYIVKKCIGRALSSSSIDCLCAMINLATTELESDFRDVLCNKLRMGFPATTFQDIQRGVTSAVNIMHSSLQQGKFDTKGIESTDEAKMSFLVTLNNVEVCSENISTLKKTLESDCTKLFSQGIGGEQAQAKFDSCLSDLAAVSNKFRDLLQEGLTELNSTAIKPQVQPWINSFFSVSHNIEEEEFNDYEANDPWVQQFILNLEQQMAEFKASLSPVIYDSLTGLMTSLVAVELEKVVLKSTFNRLGGLQFDKELRSLIAYLTTVTTWTIRDKFARLSQMATILNLERVTEILDYWGPNSGPLTWRLTPAEVRQVLALRIDFRSEDIKRLRL
For B5, the binding entry in experiment [2] is listed as “binds”.
